Results from patent publication US8445492B2, “Method for inhibiting growth of cancer cells and cell telomere and diseases of cell proliferation by using heteroannelated anthraquinone derivative compounds” (National Defense Medical Center, priority 2008, dated 2013).

Columns and labels:
MDA-MB-231/ATCC = assay: NCI DTP in-vitro dose response, Breast Cancer; type: cell-based; conditions: MDA-MB-231/ATCC
BT-549 = assay: NCI DTP in-vitro dose response, Breast Cancer; type: cell-based
OVCAR-4 = assay: NCI DTP in-vitro dose response, Ovarian Cancer; type: cell-based
OVCAR-5 = assay: NCI DTP in-vitro dose response, Ovarian Cancer; type: cell-based
MALME-3M = assay: NCI DTP in-vitro dose response, Melanoma; type: cell-based
SK-MEL-28 = assay: NCI DTP in-vitro dose response, Melanoma; type: cell-based
UACC-257 = assay: NCI DTP in-vitro dose response, Melanoma; type: cell-based
UACC-62 = assay: NCI DTP in-vitro dose response, Melanoma; type: cell-based
SNB-75 = assay: NCI DTP in-vitro dose response, CNS Cancer; type: cell-based
U251 = assay: NCI DTP in-vitro dose response, CNS Cancer; type: cell-based
HCC-2998 = assay: NCI DTP in-vitro dose response, Colon Cancer; type: cell-based
HCT-15 = assay: NCI DTP in-vitro dose response, Colon Cancer; type: cell-based
HT29 = assay: NCI DTP in-vitro dose response, Colon Cancer; type: cell-based
KM12 = assay: NCI DTP in-vitro dose response, Colon Cancer; type: cell-based

O=C1c2ccccc2C(=O)c2c1ccc1nccnc21 [TABLE 5-9]
Mean Optical Densities (MDA-MB-231/ATCC; Log10 Concentration −4.0): 0.535
Mean Optical Densities (MDA-MB-231/ATCC; Log10 Concentration −5.0): 0.854
Mean Optical Densities (MDA-MB-231/ATCC; Log10 Concentration −6.0): 0.987
Mean Optical Densities (MDA-MB-231/ATCC; Log10 Concentration −7.0): 1.008
Mean Optical Densities (MDA-MB-231/ATCC; Log10 Concentration −8.0): 1.085
Mean Optical Densities (BT-549; BT-549, Log10 Concentration −4.0): 0.562
Mean Optical Densities (BT-549; BT-549, Log10 Concentration −5.0): 0.886
Mean Optical Densities (BT-549; BT-549, Log10 Concentration −6.0): 1.044
Mean Optical Densities (BT-549; BT-549, Log10 Concentration −7.0): 1.057
Mean Optical Densities (BT-549; BT-549, Log10 Concentration −8.0): 1.114

O=C1c2ccccc2C(=O)c2c1ccc1nccnc21 [TABLE 5-6]
Mean Optical Densities (OVCAR-4; Log10 Concentration −4.0): 0.472
Mean Optical Densities (OVCAR-4; Log10 Concentration −5.0): 0.883
Mean Optical Densities (OVCAR-4; Log10 Concentration −6.0): 1.075
Mean Optical Densities (OVCAR-4; Log10 Concentration −7.0): 1.220
Mean Optical Densities (OVCAR-4; Log10 Concentration −8.0): 1.311
Mean Optical Densities (OVCAR-5; Log10 Concentration −4.0): 0.506
Mean Optical Densities (OVCAR-5; Log10 Concentration −5.0): 0.912
Mean Optical Densities (OVCAR-5; Log10 Concentration −6.0): 1.056
Mean Optical Densities (OVCAR-5; Log10 Concentration −7.0): 0.999
Mean Optical Densities (OVCAR-5; Log10 Concentration −8.0): 1.054

O=C1c2ccccc2C(=O)c2c1ccc1nccnc21 [TABLE 5-2]
Mean Optical Densities (EKVX; Log10 Concentration −4.0): 0.421
Mean Optical Densities (EKVX; Log10 Concentration −5.0): 0.584
Mean Optical Densities (EKVX; Log10 Concentration −6.0): 0.904
Mean Optical Densities (EKVX; Log10 Concentration −7.0): 0.960
Mean Optical Densities (EKVX; Log10 Concentration −8.0): 1.032
Mean Optical Densities (HOP-92; Log10 Concentration −4.0): 0.829
Mean Optical Densities (HOP-92; Log10 Concentration −5.0): 1.206
Mean Optical Densities (HOP-92; Log10 Concentration −6.0): 1.231
Mean Optical Densities (HOP-92; Log10 Concentration −7.0): 1.260
Mean Optical Densities (HOP-92; Log10 Concentration −8.0): 1.334
Mean Optical Densities (NCI-H226; Log10 Concentration −4.0): 0.769
Mean Optical Densities (NCI-H226; Log10 Concentration −5.0): 1.415
Mean Optical Densities (NCI-H226; Log10 Concentration −6.0): 1.497
Mean Optical Densities (NCI-H226; Log10 Concentration −7.0): 1.577
Mean Optical Densities (NCI-H226; Log10 Concentration −8.0): 1.631
Mean Optical Densities (NCI-H460; Log10 Concentration −4.0): 0.179
Mean Optical Densities (NCI-H460; Log10 Concentration −5.0): 0.507
Mean Optical Densities (NCI-H460; Log10 Concentration −6.0): 1.309
Mean Optical Densities (NCI-H460; Log10 Concentration −7.0): 1.815
Mean Optical Densities (NCI-H460; Log10 Concentration −8.0): 1.869
Mean Optical Densities (NCI-H522; Log10 Concentration −4.0): 0.226
Mean Optical Densities (NCI-H522; Log10 Concentration −5.0): 0.579
Mean Optical Densities (NCI-H522; Log10 Concentration −6.0): 0.906
Mean Optical Densities (NCI-H522; Log10 Concentration −7.0): 0.942
Mean Optical Densities (NCI-H522; Log10 Concentration −8.0): 0.966

O=C1c2ccccc2C(=O)c2c1ccc1nccnc21 [TABLE 5-5]
Mean Optical Densities (MALME-3M; Log10 Concentration −4.0): 0.145
Mean Optical Densities (MALME-3M; Log10 Concentration −5.0): 0.498
Mean Optical Densities (MALME-3M; Log10 Concentration −6.0): 0.687
Mean Optical Densities (MALME-3M; Log10 Concentration −7.0): 0.696
Mean Optical Densities (MALME-3M; Log10 Concentration −8.0): 0.715
Mean Optical Densities (SK-MEL-28; Log10 Concentration −4.0): 0.352
Mean Optical Densities (SK-MEL-28; Log10 Concentration −5.0): 0.873
Mean Optical Densities (SK-MEL-28; Log10 Concentration −6.0): 1.070
Mean Optical Densities (SK-MEL-28; Log10 Concentration −7.0): 1.050
Mean Optical Densities (SK-MEL-28; Log10 Concentration −8.0): 1.041
Mean Optical Densities (UACC-257; Log10 Concentration −4.0): 0.413
Mean Optical Densities (UACC-257; Log10 Concentration −5.0): 0.815
Mean Optical Densities (UACC-257; Log10 Concentration −6.0): 1.063
Mean Optical Densities (UACC-257; Log10 Concentration −7.0): 0.996
Mean Optical Densities (UACC-257; Log10 Concentration −8.0): 1.040
Mean Optical Densities (UACC-62; Log10 Concentration −4.0): 0.662
Mean Optical Densities (UACC-62; Log10 Concentration −5.0): 1.655
Mean Optical Densities (UACC-62; Log10 Concentration −6.0): 2.030
Mean Optical Densities (UACC-62; Log10 Concentration −7.0): 1.986
Mean Optical Densities (UACC-62; Log10 Concentration −8.0): 2.103

O=C1c2ccccc2C(=O)c2c1ccc1nccnc21 [TABLE 5-4]
Mean Optical Densities (SNB-75; Log10 Concentration −4.0): 0.740
Mean Optical Densities (SNB-75; Log10 Concentration −5.0): 1.079
Mean Optical Densities (SNB-75; Log10 Concentration −6.0): 1.264
Mean Optical Densities (SNB-75; Log10 Concentration −7.0): 1.350
Mean Optical Densities (SNB-75; Log10 Concentration −8.0): 1.324
Mean Optical Densities (U251; Log10 Concentration −4.0): 0.184
Mean Optical Densities (U251; Log10 Concentration −5.0): 0.604
Mean Optical Densities (U251; Log10 Concentration −6.0): 1.172
Mean Optical Densities (U251; Log10 Concentration −7.0): 1.205
Mean Optical Densities (U251; Log10 Concentration −8.0): 1.242

CCc1nc2ccc3c(c2[nH]1)C(=O)c1ccccc1C3=O [TABLE 4-6]
Mean Optical Densities (OVCAR-4; Log10 Concentration −4.0): 0.745
Mean Optical Densities (OVCAR-4; Log10 Concentration −5.0): 0.999
Mean Optical Densities (OVCAR-4; Log10 Concentration −6.0): 1.535
Mean Optical Densities (OVCAR-4; Log10 Concentration −7.0): 1.694
Mean Optical Densities (OVCAR-4; Log10 Concentration −8.0): 1.719
Mean Optical Densities (OVCAR-5; Log10 Concentration −4.0): 0.637
Mean Optical Densities (OVCAR-5; Log10 Concentration −5.0): 0.852
Mean Optical Densities (OVCAR-5; Log10 Concentration −6.0): 0.900
Mean Optical Densities (OVCAR-5; Log10 Concentration −7.0): 0.884
Mean Optical Densities (OVCAR-5; Log10 Concentration −8.0): 0.865

O=C1c2ccccc2C(=O)c2c1ccc1nccnc21 [TABLE 5-3]
Mean Optical Densities (HCC-2998; Log10 Concentration −4.0): 0.315
Mean Optical Densities (HCC-2998; Log10 Concentration −5.0): 0.658
Mean Optical Densities (HCC-2998; Log10 Concentration −6.0): 0.759
Mean Optical Densities (HCC-2998; Log10 Concentration −7.0): 1.113
Mean Optical Densities (HCC-2998; Log10 Concentration −8.0): 1.135
Mean Optical Densities (HCT-15; Log10 Concentration −4.0): 0.266
Mean Optical Densities (HCT-15; Log10 Concentration −5.0): 0.784
Mean Optical Densities (HCT-15; Log10 Concentration −6.0): 1.343
Mean Optical Densities (HCT-15; Log10 Concentration −7.0): 1.449
Mean Optical Densities (HCT-15; Log10 Concentration −8.0): 1.502
Mean Optical Densities (HT29; Log10 Concentration −4.0): 0.184
Mean Optical Densities (HT29; Log10 Concentration −5.0): 0.636
Mean Optical Densities (HT29; Log10 Concentration −6.0): 0.925
Mean Optical Densities (HT29; Log10 Concentration −7.0): 1.131
Mean Optical Densities (HT29; Log10 Concentration −8.0): 1.176
Mean Optical Densities (KM12; Log10 Concentration −4.0): 0.185
Mean Optical Densities (KM12; Log10 Concentration −5.0): 0.522
Mean Optical Densities (KM12; Log10 Concentration −6.0): 0.786
Mean Optical Densities (KM12; Log10 Concentration −7.0): 0.896
Mean Optical Densities (KM12; Log10 Concentration −8.0): 0.884

Where two headings read alike, the source gives them in different places.
